Measurements from PubChem BioAssay AID1259415 (National Center for Advancing Translational Sciences (NCATS), 2018).
About 18,000 (4.4%) of roughly 410,000 compounds were called active. Inconclusive results, whose numbers are uncertain, are shown with a selection of clear calls. Cut-off read from the data, not from the text of the source: active = activity change below about -60%; inconclusive = no clear call, values can overlap the other calls; inactive = above about -39%.

Experiment: qHTS Assay for inhibitors of the human cytomegalovirus (HCMV)
Details: HFF cells, HCMV-luciferase reporter, 72 h; at 57.5 µM; stronger effect = lower value
Summary of the method: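 Compounds were evaluated in HFFs infected with an HCMV luciferase reporter virus (MOI 1 PFU/cell). Luciferase in lysates collected 72 h post infection served as the replication measure.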
% is set by controls: 0 for no effect and ±100 for the full control effect.

SMILES	activity change, negative = inhibition
CCCCNc1nc2c(S(=O)(=O)c3ccc(C)c(C)c3)nnn2c2ccsc12	inactive: 13.4%
CCN(CC)CCSc1nc2ccccc2c(=O)n1-c1ccc(Cl)cc1	inconclusive: -49%
COc1cccc(NC(=S)N2CCN(S(=O)(=O)c3ccccc3)CC2)c1	inconclusive: -46.6%
CCC(=O)N1CCc2cc(Br)cc(S(=O)(=O)CCC(=O)NCCOC)c21	active: -84%
O=C(NCc1ccccc1)c1nn(-c2ccccc2)nc1CO	inconclusive: -47.4%
Cc1ccccc1CN1C(=O)c2ccccc2Sc2ccc(C(=O)NC(C)c3ccccc3)cc21 (stereo unspecified)	inconclusive: -42.8%
NS(=O)(=O)c1ccc(NC(=O)N2c3ccccc3Sc3ccccc32)cc1	active: -63.5%
Cc1cc(NC(=O)C(C)SCC(=O)OCc2c(Cl)cccc2Cl)no1 (stereo unspecified)	inconclusive: -41.9%
Cn1c(-c2ccc3c(c2)OCO3)cc(=O)c2ccccc21	inactive: -26.9%
COC(=O)C1=C(c2ccc(C(C)=O)cc2)C[C@@H]2CC[C@H]1N2C(=O)NCCCOC(C)C	inconclusive: -52.9%
CC1CC(C)(C)NC(=S)N1CCC(=O)N1CCc2ccccc2C1 (stereo unspecified)	inconclusive: -53.6%
C=CCn1c(SCc2ccc([N+](=O)[O-])cc2)nnc1C(C)NC(=O)c1ccccc1 (stereo unspecified)	inconclusive: -47.7%
CCOC(=O)C1CN(S(=O)(=O)c2ccc(C)cc2)c2cc(S(=O)(=O)CC)ccc2O1 (stereo unspecified)	inconclusive: -49.9%
Cc1ccc(CN2CCN(CCCn3cccn3)CC2CCO)cc1 (stereo unspecified)	inconclusive: -42.4%
S=C(NCCc1ccccc1)NC1CCC(NC(=S)NCCc2ccccc2)CC1 (stereo unspecified)	inconclusive: -54.1%
Cc1ccc(-c2nnc(C3CCN(S(=O)(=O)c4ccc(C)c(C)c4)CC3)o2)cc1	inconclusive: -51.3%
CCOc1ccc2ccccc2c1C1NC(=S)N(C)C(C)=C1C(=O)OC (stereo unspecified)	inactive: -13.9%
O=C(O)c1nccnc1C(=O)Nc1ccc(S(=O)(=O)N2CCOCC2)cc1	inactive: 10.6%
COc1ccc(-c2n[nH]c(C(F)(F)F)c2-c2cc3ccccc3o2)c(O)c1	inactive: -3.49%
Cc1cc(C)n2nc(C(=O)OCC(=O)N3CCC3)nc2n1	inconclusive: -46.4%
CCn1c(SCC(=O)N/N=C/c2ccccc2OCC(=O)O)nnc1-c1ccc(C(C)(C)C)cc1	inactive: 0%
CC(C)CNC(=O)C1(C)CCCN1C(=O)c1ccc2c(c1)CCO2 (stereo unspecified)	inactive: -12.1%

21 entries from above, with bars between the fields.
SMILES | activity change, negative = inhibition
CCCCNc1nc2c(S(=O)(=O)c3ccc(C)c(C)c3)nnn2c2ccsc12 | inactive: 13.4%
CCN(CC)CCSc1nc2ccccc2c(=O)n1-c1ccc(Cl)cc1 | inconclusive: -49%
COc1cccc(NC(=S)N2CCN(S(=O)(=O)c3ccccc3)CC2)c1 | inconclusive: -46.6%
CCC(=O)N1CCc2cc(Br)cc(S(=O)(=O)CCC(=O)NCCOC)c21 | active: -84%
O=C(NCc1ccccc1)c1nn(-c2ccccc2)nc1CO | inconclusive: -47.4%
Cc1ccccc1CN1C(=O)c2ccccc2Sc2ccc(C(=O)NC(C)c3ccccc3)cc21 (stereo unspecified) | inconclusive: -42.8%
NS(=O)(=O)c1ccc(NC(=O)N2c3ccccc3Sc3ccccc32)cc1 | active: -63.5%
Cc1cc(NC(=O)C(C)SCC(=O)OCc2c(Cl)cccc2Cl)no1 (stereo unspecified) | inconclusive: -41.9%
Cn1c(-c2ccc3c(c2)OCO3)cc(=O)c2ccccc21 | inactive: -26.9%
COC(=O)C1=C(c2ccc(C(C)=O)cc2)C[C@@H]2CC[C@H]1N2C(=O)NCCCOC(C)C | inconclusive: -52.9%
CC1CC(C)(C)NC(=S)N1CCC(=O)N1CCc2ccccc2C1 (stereo unspecified) | inconclusive: -53.6%
C=CCn1c(SCc2ccc([N+](=O)[O-])cc2)nnc1C(C)NC(=O)c1ccccc1 (stereo unspecified) | inconclusive: -47.7%
CCOC(=O)C1CN(S(=O)(=O)c2ccc(C)cc2)c2cc(S(=O)(=O)CC)ccc2O1 (stereo unspecified) | inconclusive: -49.9%
Cc1ccc(CN2CCN(CCCn3cccn3)CC2CCO)cc1 (stereo unspecified) | inconclusive: -42.4%
S=C(NCCc1ccccc1)NC1CCC(NC(=S)NCCc2ccccc2)CC1 (stereo unspecified) | inconclusive: -54.1%
CCOc1ccc2ccccc2c1C1NC(=S)N(C)C(C)=C1C(=O)OC (stereo unspecified) | inactive: -13.9%
O=C(O)c1nccnc1C(=O)Nc1ccc(S(=O)(=O)N2CCOCC2)cc1 | inactive: 10.6%
COc1ccc(-c2n[nH]c(C(F)(F)F)c2-c2cc3ccccc3o2)c(O)c1 | inactive: -3.49%
Cc1cc(C)n2nc(C(=O)OCC(=O)N3CCC3)nc2n1 | inconclusive: -46.4%
CCn1c(SCC(=O)N/N=C/c2ccccc2OCC(=O)O)nnc1-c1ccc(C(C)(C)C)cc1 | inactive: 0%
CC(C)CNC(=O)C1(C)CCCN1C(=O)c1ccc2c(c1)CCO2 (stereo unspecified) | inactive: -12.1%

Additional compounds.

SMILES	activity change, negative = inhibition
CC1=C(c2ccc(C)cc2)S(=O)(=O)NC1=NCc1cccc(F)c1	inconclusive: -47.3%
CCOc1ccc(N(CC(=O)NCCc2ccc(C)cc2)S(=O)(=O)c2c(C)noc2C)cc1	active: -69.1%
CC1=C(C(=O)OCc2ccccc2)C(c2cccc(Cl)c2Cl)CC(=O)N1 (stereo unspecified)	inactive: -12.8%
O=C(Nc1ccc(Br)cc1F)N1CCC(CN2CCCC2)CC1	inconclusive: -44.5%
COc1ccc(-n2c(C)cc(/C=C3/SC(=S)N(C)C3=O)c2C)cc1	inconclusive: -41.7%
O=C(Nc1ccccc1)Nc1ccc2ccccc2c1	inconclusive: 0%
COc1cc(NC(=O)C2=C(C)OCCS2)c(Cl)cc1C(=O)NCCN1CCN(C)CC1	inconclusive: 0%
COc1ccc(Nc2nc(N3CCCC3)nc(N3CCCC3)n2)c(OC)c1	active: -92.4%
O=C(Nc1ccc2c(c1)OCCO2)c1ccc(NC(=O)C2CCCO2)cc1 (stereo unspecified)	inactive: -38.5%
O=C(N/N=C/c1cc2c(cc1Br)OCO2)c1cccnc1	inconclusive: -44.5%
COc1cc(C(=O)Oc2ccccc2/C=N/NC(=O)c2ccc(Cl)cc2)cc(OC)c1OC	active: -99.3%
NC(Cc1ccc(C(F)(F)F)cc1)c1csc(Nc2nncc3ccccc23)n1 (stereo unspecified)	active: -104%
COc1ccccc1C(=O)NNC(=O)CCCN1C(=O)/C(=C/c2cccs2)SC1=S	active: -68.4%
COc1ccc(/C=N/c2oc(C)c(C)c2C#N)c(OC)c1	inconclusive: -45.6%
O=C(COc1ccc(Cl)cc1)N1CCN(c2ncccn2)CC1	inconclusive: -48.2%
O=C(CCCCCNC(=O)N1CCn2c1nc1ccccc12)NCc1ccccc1	inactive: -36.3%
O=C(CSc1nc2c(c(=O)n1-c1ccc(F)cc1)SCC2)Nc1ccc2c(c1)OCO2	inconclusive: -41.9%
Cc1nn(C)c(C)c1NC(=O)CCSc1nc(-c2ccco2)cc(C(F)(F)F)n1	inconclusive: -43.4%
CCOC(=O)CC1C(=O)NCCN1C(=O)c1sc2ccccc2c1Cl (stereo unspecified)	inconclusive: -44%
Clc1ccc(OCCN2CCN(c3ncnc4sccc34)CC2)cc1	inconclusive: -46.2%
CCOc1cc(/C=C2/C(=O)ON=C2C)ccc1OCc1ccc(F)cc1	active: -97%
CC(C)COc1ccc(CNC(=S)Nc2ccccc2)cc1Cl	inactive: -25.7%

SMILES	activity change, negative = inhibition
Cn1c(=O)c2c(nc3n(-c4ccc(O)cc4)c(-c4ccc(Br)cc4)cn23)n(C)c1=O	inconclusive: -41.1%
O=C(O)c1cc(NC(=O)C2CCCO2)cc(C(=O)O)c1 (stereo unspecified)	inactive: -3.12%
CCC(=O)Nc1nonc1-c1nc2ccccc2n1Cc1cccc2ccccc12	active: -104%
CC1=CC2OC3CC4OC(=O)C=CC=CC(C(C)O)OCC(O)C(C)CC(=O)OCC2(CC1O)C4(C)C31CO1 (stereo unspecified)	active: -97.3%
COc1ccc(NC(=O)c2csc(Cc3ccc(Cl)cc3)n2)cc1	inconclusive: -40.9%
O=C(Nc1ccc(F)cc1)C(c1ccccc1)N1CCN(c2ccncc2)CC1 (stereo unspecified)	inactive: -16.9%
Cc1ccc(Cl)c2sc(NC(=O)CS(=O)(=O)c3ccc(Cl)cc3)nc12	inactive: 0%
CCOC(=O)CN1C(=O)N2C[C@H]3CON(C)[C@H]3C[C@H]2c2ccccc21	inactive: -15.1%
COc1ccc(C(c2nnnn2-c2ccc3c(c2)OCCO3)N2CCC(n3c(=O)[nH]c4ccccc43)CC2)cc1 (stereo unspecified)	inconclusive: -50.9%
O=c1c2cc(N3CCOCC3)ccc2[nH]c(=S)n1CCN1CCCC1	inactive: 63.8%
Cc1cccc(N(Cc2ccccc2)C(=O)c2cc(S(=O)(=O)N3CCOCC3)ccc2Cl)c1	inconclusive: -47%
CSc1ncccc1C(=O)Nc1ccc(F)c(F)c1F	inconclusive: -40.2%
CCCc1nnc(NC(=O)CCC(=O)NC2CC2)s1	inconclusive: -45.6%
COCCN=c1scc(-c2ccc3c(c2)NC(=O)CO3)n1/N=C(\C)c1ccc(O)cc1	inconclusive: -57.7%
Cc1cccc(C2c3[nH]c4ccccc4c3CCN2Cc2cccn2-c2ncccn2)c1 (stereo unspecified)	inactive: -32.3%
O=C(Nc1ccc(N2CCN(C(=O)c3ccco3)CC2)c(Cl)c1)c1cc2ccccc2o1	active: -99.3%
COc1ccc(S(=O)(=O)N2CCN(c3ccccc3OC)CC2)cc1-c1noc(C)n1	inconclusive: -42.9%
CCOc1cccc(C2C(C(=O)c3ccc(C)o3)=C(O)C(=O)N2CCCn2ccnc2)c1 (stereo unspecified)	inactive: -13.7%
Clc1ccc(-c2c[n+](Cc3cccc(Cl)c3)c3n2CCC3)cc1	active: -93.6%
Nc1nc(NCCCN2CCOCC2)nc(Nc2cccc(Cl)c2)c1[N+](=O)[O-]	inconclusive: -48.8%
CCN(CC)C1=CC2=CC(=C(C#N)C#N)CCC2CC1 (stereo unspecified)	inconclusive: -56.3%
O=C(CCS(=O)(=O)c1ccc(Br)cc1)Nc1ccccc1Cl	inactive: -10%

SMILES	activity change, negative = inhibition
COc1ccc(NC(=O)C2CCN(S(=O)(=O)c3ccc4c(c3)CCCC(=O)N4)CC2)cc1Cl	inactive: 2.47%
O=C(N/N=C/c1cccc(O)c1)N/N=C/c1cccc(O)c1	inactive: 26.7%
CC1Nc2ncnc(N3CCOCC3)c2N(Cc2ccc(Cl)cc2)C1=O (stereo unspecified)	inactive: -9.25%
COCCn1c(SCC(=O)Nc2cc(C)on2)nc2ccccc2c1=O	inactive: -9.5%
Cc1ccc(CN(C(=O)Nc2cccc(Cl)c2)c2ccccn2)cc1	inactive: -17.9%
COc1ccc(S(=O)(=O)N(CC(=O)NCc2ccco2)c2ccc(F)cc2)cc1	inconclusive: -48%
Cc1ccc(C(C)C)c(OCC(=O)Nc2ccc(S(=O)(=O)Nc3onc(C)c3C)cc2)c1	inactive: 27.6%
Cn1ncc([N+](=O)[O-])c1C(=O)Nc1ccccc1C#N	inconclusive: -50.5%
COc1ccc(S(=O)(=O)N2CCCCCC2)cc1NC(=O)Cc1ccccc1F	inconclusive: -51.5%
O=C(NC1CCCN(Cc2ccc(Cl)cc2)C1)c1cnc2ccccn2c1=O (stereo unspecified)	active: -64.9%
O=C(Nc1ccc(Cl)cc1)Nc1nnc(-c2ccncc2)s1	active: -66.7%
CCc1cc(=O)oc2cc(OCc3ccc(C(=O)O)o3)ccc12	inconclusive: -51%
CCCNc1c(NC(=O)c2cccs2)c(=O)oc2ccccc12	inconclusive: -47.9%
c1ccc(CN2CCN(c3nc4ccccc4c4ccccc34)CC2)cc1	inconclusive: -41.8%
COC(=O)c1ccc(-n2nnc(-c3nc(-c4ccc5c(c4)OCO5)no3)c2C)cc1	inactive: 5.03%
N/C(=N\OC(=O)CCCN1C(=O)c2ccccc2C1=O)c1ccc(Cl)cc1	inconclusive: -44.6%
Cc1ccccc1-n1c(SCC(=O)N2CCN(c3ccccc3)CC2)nnc1-c1ccncc1	inconclusive: -47.5%
Cn1c(=NC(=O)c2ccc3c(c2)OCCO3)sc2cc(S(C)(=O)=O)ccc21	inconclusive: -55.9%
O=C(O)CCc1nn2c3ccccc3n(Cc3ccccc3)c2nc1=O	inactive: -26.7%
CCOc1cccc(CC(=O)Nc2ccc3nc(N4CCCCC4)cc(C)c3c2)c1OCC	inactive: 19.7%
